Source: patent US5480777A (priority 1995, dated 1996)

System: phosphoenolpyruvate carboxylase (PEPC)
Format: biochemical, wheat germ

Row | SMILES | response of concentration-absorbance change curves | shape of absorbance change curves over the HCO3^- concentration range of interest
1 | [K+].[O-][Cl+3]([O-])([O-])[O-] [KClO4] | linear response | essentially linear absorbance change curves
2 | [K+].[O-][Cl+2]([O-])[O-] [KClO3] | linear response | essentially linear absorbance change curves
3 | N#CS [KSCN, potassium thiocyanate] | linear response | essentially linear absorbance change curves
4 | [I-].[K+] [KI] | linear response | essentially linear absorbance change curves

Some entries repeat one wording, which the source may state once for all of them.
